Earlier results, collected in patent US5981777A, “Recovery of taxanes from plant material” (The Regents of the University of California, priority 1997, dated 1999).

Details: in words; cited from earlier work

## CC(=O)O[C@H]1C(=O)[C@@]2(C)[C@H]([C@H](OC(=O)c3ccccc3)[C@]3(O)C[C@H](OC(=O)[C@H](O)[C@@H](NC(=O)c4ccccc4)c4ccccc4)C(C)=C1C3(C)C)[C@]1(OC(C)=O)CO[C@@H]1C[C@@H]2O [Taxol ® (paclitaxel), paclitaxel]
  solubility in aqueous solutions: relatively insoluble
